Some of the results follow.
Legend:
Assay in all cases: log2 fold change, soluble protein after heating vs DMSO (PISA); higher = thermal stabilisation; K562 lysate, 10 uM; active = over 0.2 and 3.5 SD of the protein, either way, in both replicates (recomputed)
erlotinib = compound: C#Cc1cccc(Nc2ncnc3cc(OCCOC)c(OCCOC)cc23)c1 [erlotinib]
Outline: (§1)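 Quantification was by TMTpro 16plex LC-MS/MS with equalised channel sums, applied to the supernatant after 21,000xg for 90 min. Samples were crude K562 extract at 1 mg/mL protein in PBS pH 7.4 with 1 mM MgCl2, treated with 10 μM compound for 30 min, heated for 3 min across 48°C-58°C, pooled and brought to 0.5% NP-40 at 4°C. Values are log-two fold changes in thermal stability relative to solvent controls, from duplicates.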

The chains behind the UniProt entries cited, without tags or fusion partners. Where a name states a change or a piece, a line headed by the entry shows the natural chain unless it says otherwise.
UniProt Q9H0H0, whole entry, looked up: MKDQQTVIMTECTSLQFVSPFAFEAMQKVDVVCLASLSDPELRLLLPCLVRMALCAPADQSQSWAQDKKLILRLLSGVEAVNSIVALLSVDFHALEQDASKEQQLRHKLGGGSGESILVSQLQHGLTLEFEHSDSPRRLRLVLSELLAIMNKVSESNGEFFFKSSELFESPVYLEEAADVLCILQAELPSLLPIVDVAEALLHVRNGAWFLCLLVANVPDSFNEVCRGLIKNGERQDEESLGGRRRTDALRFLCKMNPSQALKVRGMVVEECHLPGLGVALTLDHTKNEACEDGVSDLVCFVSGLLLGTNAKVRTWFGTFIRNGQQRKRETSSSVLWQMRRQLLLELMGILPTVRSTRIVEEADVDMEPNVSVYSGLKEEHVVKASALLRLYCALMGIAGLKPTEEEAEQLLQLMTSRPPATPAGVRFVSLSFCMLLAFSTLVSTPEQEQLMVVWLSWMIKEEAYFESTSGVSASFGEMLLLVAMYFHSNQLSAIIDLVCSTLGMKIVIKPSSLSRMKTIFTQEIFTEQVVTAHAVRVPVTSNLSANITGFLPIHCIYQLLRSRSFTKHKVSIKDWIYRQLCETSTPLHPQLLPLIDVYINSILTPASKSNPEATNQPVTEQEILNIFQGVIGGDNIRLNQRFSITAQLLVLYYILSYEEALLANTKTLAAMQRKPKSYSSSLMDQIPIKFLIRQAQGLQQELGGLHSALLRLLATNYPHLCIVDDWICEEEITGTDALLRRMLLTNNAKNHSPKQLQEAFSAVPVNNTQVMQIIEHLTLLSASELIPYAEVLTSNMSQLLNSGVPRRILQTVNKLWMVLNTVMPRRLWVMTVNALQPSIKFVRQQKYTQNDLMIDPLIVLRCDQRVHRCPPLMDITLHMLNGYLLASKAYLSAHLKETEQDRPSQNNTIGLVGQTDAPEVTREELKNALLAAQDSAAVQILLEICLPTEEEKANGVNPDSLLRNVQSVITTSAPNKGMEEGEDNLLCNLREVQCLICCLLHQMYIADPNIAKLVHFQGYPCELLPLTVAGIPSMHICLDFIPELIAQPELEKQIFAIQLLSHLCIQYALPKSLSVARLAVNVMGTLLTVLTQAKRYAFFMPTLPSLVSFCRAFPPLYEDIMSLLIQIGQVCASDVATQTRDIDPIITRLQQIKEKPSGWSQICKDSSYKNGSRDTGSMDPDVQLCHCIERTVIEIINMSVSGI
UniProt P18084: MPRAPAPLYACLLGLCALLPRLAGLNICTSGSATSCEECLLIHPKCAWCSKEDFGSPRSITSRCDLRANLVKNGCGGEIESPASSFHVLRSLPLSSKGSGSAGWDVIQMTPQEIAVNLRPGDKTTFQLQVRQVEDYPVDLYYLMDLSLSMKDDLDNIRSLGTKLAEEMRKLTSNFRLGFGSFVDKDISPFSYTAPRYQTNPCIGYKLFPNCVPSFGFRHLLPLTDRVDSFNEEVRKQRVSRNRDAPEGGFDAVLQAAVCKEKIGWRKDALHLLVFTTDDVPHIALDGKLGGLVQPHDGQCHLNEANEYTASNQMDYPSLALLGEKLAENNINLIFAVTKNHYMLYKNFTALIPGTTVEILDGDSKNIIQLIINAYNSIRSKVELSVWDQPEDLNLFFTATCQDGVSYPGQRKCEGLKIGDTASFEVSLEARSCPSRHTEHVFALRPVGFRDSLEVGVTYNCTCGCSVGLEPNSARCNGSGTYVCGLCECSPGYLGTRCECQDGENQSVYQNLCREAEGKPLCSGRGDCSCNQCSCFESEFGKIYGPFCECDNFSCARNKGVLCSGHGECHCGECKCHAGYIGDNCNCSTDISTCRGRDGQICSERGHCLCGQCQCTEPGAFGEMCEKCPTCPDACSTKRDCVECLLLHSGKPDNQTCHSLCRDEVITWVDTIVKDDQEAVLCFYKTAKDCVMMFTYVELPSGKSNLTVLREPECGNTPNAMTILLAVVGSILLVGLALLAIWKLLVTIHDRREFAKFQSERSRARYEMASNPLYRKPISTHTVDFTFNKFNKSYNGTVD
UniProt Q6DN90: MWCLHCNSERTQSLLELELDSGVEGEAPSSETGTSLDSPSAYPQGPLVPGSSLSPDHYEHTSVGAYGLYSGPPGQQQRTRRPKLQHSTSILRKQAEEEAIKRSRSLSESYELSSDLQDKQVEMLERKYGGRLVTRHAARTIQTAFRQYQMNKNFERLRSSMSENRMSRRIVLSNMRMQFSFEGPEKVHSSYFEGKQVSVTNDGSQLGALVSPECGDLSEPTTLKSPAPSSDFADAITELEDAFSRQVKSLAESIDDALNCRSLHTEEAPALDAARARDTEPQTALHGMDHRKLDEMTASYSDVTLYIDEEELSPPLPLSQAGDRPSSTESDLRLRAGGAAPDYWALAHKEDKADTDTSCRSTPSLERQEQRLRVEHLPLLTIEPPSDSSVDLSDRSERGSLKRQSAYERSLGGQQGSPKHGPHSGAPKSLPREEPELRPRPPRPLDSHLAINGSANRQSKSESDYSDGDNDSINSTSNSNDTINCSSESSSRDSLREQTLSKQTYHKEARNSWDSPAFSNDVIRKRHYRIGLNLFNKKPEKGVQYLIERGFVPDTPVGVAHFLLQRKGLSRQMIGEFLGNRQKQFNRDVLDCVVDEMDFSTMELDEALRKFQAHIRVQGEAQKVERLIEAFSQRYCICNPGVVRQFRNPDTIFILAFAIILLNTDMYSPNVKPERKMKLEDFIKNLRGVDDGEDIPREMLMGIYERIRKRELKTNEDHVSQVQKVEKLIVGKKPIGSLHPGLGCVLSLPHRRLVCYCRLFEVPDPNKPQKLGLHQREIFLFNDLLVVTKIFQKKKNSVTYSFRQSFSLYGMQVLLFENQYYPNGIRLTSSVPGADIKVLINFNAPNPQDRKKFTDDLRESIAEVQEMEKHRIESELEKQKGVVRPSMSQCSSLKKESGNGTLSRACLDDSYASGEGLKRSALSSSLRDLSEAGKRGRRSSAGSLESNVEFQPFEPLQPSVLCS
UniProt Q13572: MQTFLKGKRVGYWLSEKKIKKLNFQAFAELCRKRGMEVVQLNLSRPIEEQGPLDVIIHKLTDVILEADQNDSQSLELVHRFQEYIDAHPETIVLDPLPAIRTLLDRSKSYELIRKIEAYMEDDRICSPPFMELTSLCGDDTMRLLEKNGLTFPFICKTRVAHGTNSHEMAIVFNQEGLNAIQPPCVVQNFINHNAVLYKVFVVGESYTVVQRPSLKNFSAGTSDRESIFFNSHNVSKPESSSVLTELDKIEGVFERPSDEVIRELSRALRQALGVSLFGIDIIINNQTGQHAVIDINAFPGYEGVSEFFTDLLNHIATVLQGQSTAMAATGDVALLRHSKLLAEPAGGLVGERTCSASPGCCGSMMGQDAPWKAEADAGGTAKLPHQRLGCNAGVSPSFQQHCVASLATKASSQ
UniProt O00410: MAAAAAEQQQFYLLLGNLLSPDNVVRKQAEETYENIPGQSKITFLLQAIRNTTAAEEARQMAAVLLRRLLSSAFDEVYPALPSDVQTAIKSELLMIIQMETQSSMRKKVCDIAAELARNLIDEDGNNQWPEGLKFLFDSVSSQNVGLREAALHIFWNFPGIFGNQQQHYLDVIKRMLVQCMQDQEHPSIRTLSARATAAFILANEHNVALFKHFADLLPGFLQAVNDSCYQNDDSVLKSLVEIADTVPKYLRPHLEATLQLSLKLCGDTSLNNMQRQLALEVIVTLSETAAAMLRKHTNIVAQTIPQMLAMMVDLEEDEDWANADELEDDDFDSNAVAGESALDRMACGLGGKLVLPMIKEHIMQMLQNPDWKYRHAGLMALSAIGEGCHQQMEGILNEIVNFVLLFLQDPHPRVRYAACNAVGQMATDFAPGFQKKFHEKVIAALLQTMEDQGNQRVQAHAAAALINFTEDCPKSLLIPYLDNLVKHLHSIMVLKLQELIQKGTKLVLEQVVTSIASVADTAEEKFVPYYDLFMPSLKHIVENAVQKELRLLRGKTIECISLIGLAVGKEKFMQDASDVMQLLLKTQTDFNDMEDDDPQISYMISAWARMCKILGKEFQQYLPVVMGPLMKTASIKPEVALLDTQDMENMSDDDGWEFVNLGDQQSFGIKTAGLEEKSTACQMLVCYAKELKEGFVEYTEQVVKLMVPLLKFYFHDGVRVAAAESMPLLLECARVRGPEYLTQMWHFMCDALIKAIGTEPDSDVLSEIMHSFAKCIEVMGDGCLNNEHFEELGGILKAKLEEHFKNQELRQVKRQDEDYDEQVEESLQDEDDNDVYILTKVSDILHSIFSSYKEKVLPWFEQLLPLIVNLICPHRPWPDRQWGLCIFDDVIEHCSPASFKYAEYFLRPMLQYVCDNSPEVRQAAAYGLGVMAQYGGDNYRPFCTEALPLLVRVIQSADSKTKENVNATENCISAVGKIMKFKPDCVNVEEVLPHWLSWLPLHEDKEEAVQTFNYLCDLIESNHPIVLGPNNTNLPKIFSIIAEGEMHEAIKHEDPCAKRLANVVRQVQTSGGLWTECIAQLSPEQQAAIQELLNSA
UniProt Q8TEX9: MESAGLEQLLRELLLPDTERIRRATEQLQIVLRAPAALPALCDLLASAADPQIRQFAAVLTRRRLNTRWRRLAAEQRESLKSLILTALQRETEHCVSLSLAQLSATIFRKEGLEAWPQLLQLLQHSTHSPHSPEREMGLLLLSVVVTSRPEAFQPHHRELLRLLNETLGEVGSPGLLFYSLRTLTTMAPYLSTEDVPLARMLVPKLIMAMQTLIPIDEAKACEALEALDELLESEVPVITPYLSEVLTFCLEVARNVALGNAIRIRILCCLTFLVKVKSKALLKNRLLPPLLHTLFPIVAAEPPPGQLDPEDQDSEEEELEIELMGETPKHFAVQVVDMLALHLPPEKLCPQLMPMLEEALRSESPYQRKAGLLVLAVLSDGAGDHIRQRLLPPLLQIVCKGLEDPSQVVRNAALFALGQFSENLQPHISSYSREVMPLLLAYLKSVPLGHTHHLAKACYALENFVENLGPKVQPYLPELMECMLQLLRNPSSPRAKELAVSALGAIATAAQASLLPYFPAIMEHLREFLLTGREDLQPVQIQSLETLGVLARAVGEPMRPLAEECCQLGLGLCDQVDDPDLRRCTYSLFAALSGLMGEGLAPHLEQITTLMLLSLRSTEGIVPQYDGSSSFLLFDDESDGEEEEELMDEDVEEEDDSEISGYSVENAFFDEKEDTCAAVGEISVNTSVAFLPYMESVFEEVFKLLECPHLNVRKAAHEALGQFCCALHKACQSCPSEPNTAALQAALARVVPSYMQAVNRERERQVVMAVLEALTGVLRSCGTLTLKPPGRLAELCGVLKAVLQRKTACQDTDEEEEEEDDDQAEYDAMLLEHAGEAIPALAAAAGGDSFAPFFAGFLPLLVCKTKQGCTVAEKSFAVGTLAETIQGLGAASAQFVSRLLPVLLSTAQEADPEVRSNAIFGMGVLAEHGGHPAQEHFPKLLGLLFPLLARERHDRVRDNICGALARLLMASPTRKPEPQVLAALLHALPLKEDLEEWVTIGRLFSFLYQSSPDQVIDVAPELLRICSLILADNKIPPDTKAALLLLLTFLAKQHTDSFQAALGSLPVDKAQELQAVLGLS
UniProt O15397, whole entry, looked up: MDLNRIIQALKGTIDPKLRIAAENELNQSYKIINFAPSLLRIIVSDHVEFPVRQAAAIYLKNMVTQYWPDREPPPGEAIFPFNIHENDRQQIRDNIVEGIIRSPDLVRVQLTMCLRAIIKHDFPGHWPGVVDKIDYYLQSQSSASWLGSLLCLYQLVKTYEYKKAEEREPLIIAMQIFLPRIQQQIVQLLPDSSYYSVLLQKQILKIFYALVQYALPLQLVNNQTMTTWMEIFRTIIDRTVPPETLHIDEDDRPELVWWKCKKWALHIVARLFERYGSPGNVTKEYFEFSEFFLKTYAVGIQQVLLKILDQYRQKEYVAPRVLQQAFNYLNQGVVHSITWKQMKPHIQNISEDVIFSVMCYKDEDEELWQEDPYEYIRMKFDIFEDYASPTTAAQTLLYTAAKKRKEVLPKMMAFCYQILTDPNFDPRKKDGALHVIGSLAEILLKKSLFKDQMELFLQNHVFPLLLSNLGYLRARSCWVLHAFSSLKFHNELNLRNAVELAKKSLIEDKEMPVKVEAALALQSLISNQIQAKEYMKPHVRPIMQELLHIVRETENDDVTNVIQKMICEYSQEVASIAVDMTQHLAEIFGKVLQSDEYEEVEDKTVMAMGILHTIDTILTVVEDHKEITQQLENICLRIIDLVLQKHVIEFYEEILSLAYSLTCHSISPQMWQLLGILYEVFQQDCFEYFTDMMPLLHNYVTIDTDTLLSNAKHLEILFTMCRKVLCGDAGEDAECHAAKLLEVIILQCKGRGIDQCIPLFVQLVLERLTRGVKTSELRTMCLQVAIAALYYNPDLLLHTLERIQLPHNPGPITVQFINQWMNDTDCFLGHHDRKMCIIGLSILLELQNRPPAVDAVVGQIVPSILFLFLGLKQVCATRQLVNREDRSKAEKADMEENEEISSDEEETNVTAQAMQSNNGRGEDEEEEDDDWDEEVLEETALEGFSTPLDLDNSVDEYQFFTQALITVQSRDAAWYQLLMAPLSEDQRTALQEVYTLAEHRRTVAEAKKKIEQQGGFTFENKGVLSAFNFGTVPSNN

[1] = compound: C/C(=N\NC(=O)C1=CC(=CC=C1)S(=O)(=O)N2CCOCC2)/C3=C(C=CC(=C3)Cl)O
Outline: as §1

[2] = compound: C1=CC(=CC=C1C2=NC3=C(N2)C=C(C=C3)C(=O)N)OC4=CC=C(C=C4)Cl
Outline: as §1

[3] = compound: C1=CC2=C(C=CC(=C2)/C=C\3/C(=O)NC(=NCC4=CC=CS4)S3)N=C1
Outline: as §1

[4] = compound: C1=CC2=NC=CN=C2C=C1/C=C/3\C(=O)NC(=O)S3
Outline: as §1

[5] = compound: C1=CC=C(C=C1)C2=NC(=C(N2)C3=CC=NC=C3)C4=CC(=C(C=C4)Cl)O
Outline: as §1

[6] = compound: C1=CC=C2C(=C1)C3=NNC4=CC=CC(=C43)C2=O
Outline: as §1

[7] = compound: C1CCN(C1)C(=O)NC2=CC=CC(=C2)NC3=NC=C(C(=N3)NCCC4=CN=CN4)Br
Outline: as §1

[8] = compound: C1CN(CCC1(CC2=CC=C(C=C2)Cl)N)C3=NC=NC4=C3C=CN4
Outline: as §1

IRAK-1-4 Inhibitor I = compound: C1COCCN1CCN2C3=CC=CC=C3N=C2NC(=O)C4=CC(=CC=C4)[N+](=O)[O-] [IRAK-1-4 Inhibitor I]
Outline: as §1

Measured: log2 fold change

JAGN1 (UniProt Q8N5M9)
inactive: erlotinib 0.037 | [1] 0.02 | [2] -0.049 | [3] 0.078 | [4] -0.02 | [5] -0.022 | [6] 0.029 | [7] 0.002 | [8] -0.001 | IRAK-1-4 Inhibitor I 0.051

INTS2 (UniProt Q9H0H0)
inactive: erlotinib 0.124 | [1] 0.161 | [2] 0 | [3] 0.109 | [4] -0.049 | [5] -0.01 | [6] 0.048 | [7] -0.036 | [8] 0.066 | IRAK-1-4 Inhibitor I 0.053

JPT2 isoform 3 (UniProt Q9H910)
inactive: erlotinib -0.002 | [1] -0.006 | [2] 0.096 | [3] -0.02 | [4] -0.012 | [5] 0.008 | [6] -0.024 | [7] -0.004 | [8] -0.008 | IRAK-1-4 Inhibitor I 0.021

IVNS1ABP (UniProt Q9Y6Y0)
inactive: erlotinib 0.004 | [1] 0.051 | [2] -0.002 | [3] 0.013 | [4] -0.066 | [5] 0.007 | [6] 0.013 | [7] 0 | [8] 0.005 | IRAK-1-4 Inhibitor I 0.009

KDM1A (UniProt O60341)
inactive: erlotinib -0.005 | [1] 0.106 | [2] 0.021 | [3] 0 | [4] -0.006 | [5] -0.019 | [6] -0.071 | [7] -0.019 | [8] -0.009 | IRAK-1-4 Inhibitor I -0.003

KCTD20 (UniProt Q7Z5Y7)
inactive: erlotinib 0.072 | [1] -0.145 | [2] -0.006 | [3] 0 | [4] 0.001 | [5] 0.063 | [6] 0.038 | [7] 0.081 | [8] 0.083 | IRAK-1-4 Inhibitor I 0.048

IRGQ (UniProt Q8WZA9)
inactive: erlotinib 0.02 | [1] 0.038 | [2] 0.004 | [3] 0 | [4] -0.005 | [5] 0 | [6] -0.009 | [7] -0.021 | [8] 0.024 | IRAK-1-4 Inhibitor I -0.01

ITGB5 (UniProt P18084)
inactive: erlotinib -0.015 | [1] -0.07 | [2] 0.022 | [3] -0.051 | [4] -0.012 | [5] -0.028 | [6] -0.038 | [7] 0.027 | [8] -0.024 | IRAK-1-4 Inhibitor I 0.005

KCTD5 (UniProt Q9NXV2)
inactive: erlotinib -0.042 | [1] -0.04 | [2] 0.017 | [3] 0.041 | [4] -0.026 | [5] -0.043 | [6] -0.026 | [7] -0.062 | [8] 0.092 | IRAK-1-4 Inhibitor I 0.046

ITPKC (UniProt Q96DU7)
inactive: erlotinib 0.074 | [1] 0.081 | [2] -0.052 | [3] 0.053 | [4] 0.024 | [5] 0.073 | [6] -0.004 | [7] 0.014 | [8] 0.024 | IRAK-1-4 Inhibitor I -0.013

ITGB1 (UniProt P05556)
inactive: erlotinib 0.006 | [1] -0.038 | [2] 0.008 | [3] -0.001 | [4] -0.011 | [5] -0.014 | [6] 0.004 | [7] 0.008 | [8] 0.009 | IRAK-1-4 Inhibitor I 0.018

ITFG1 (UniProt Q8TB96)
inactive: erlotinib -0.037 | [1] -0.129 | [2] 0.044 | [3] -0.026 | [4] -0.003 | [5] 0.011 | [6] -0.008 | [7] -0.016 | [8] -0.011 | IRAK-1-4 Inhibitor I 0.038

KANSL3 (UniProt Q9P2N6)
inactive: erlotinib -0.031 | [1] -0.091 | [2] -0.051 | [3] -0.016 | [4] 0.026 | [5] 0.029 | [6] 0 | [7] -0.102 | [8] -0.101 | IRAK-1-4 Inhibitor I -0.014

KDELR2 (UniProt P33947)
inactive: erlotinib 0.025 | [1] 0.037 | [2] 0.048 | [3] -0.069 | [4] 0.045 | [5] -0.063 | [6] -0.037 | [7] -0.094 | [8] -0.008 | IRAK-1-4 Inhibitor I 0.114

ITGAE (UniProt P38570)
inactive: erlotinib 0.079 | [1] -0.165 | [2] 0.146 | [3] -0.06 | [4] -0.073 | [5] 0.133 | [6] -0.09 | [7] -0.082 | [8] 0.016 | IRAK-1-4 Inhibitor I -0.086

IQSEC1 (UniProt Q6DN90)
inactive: erlotinib 0.024 | [1] 0.009 | [2] 0.03 | [3] 0.099 | [4] -0.064 | [5] -0.052 | [6] -0.101 | [7] -0.013 | [8] -0.082 | IRAK-1-4 Inhibitor I 0.005

ITPK1 (UniProt Q13572)
inactive: erlotinib -0.01 | [1] 0.1 | [2] 0.13 | [3] 0.109 | [4] -0.045 | [5] -0.005 | [6] -0.073 | [7] 0.026 | [8] -0.022 | IRAK-1-4 Inhibitor I 0.009

IPO5 isoform 3 (UniProt O00410)
inactive: erlotinib 0.009 | [1] 0.006 | [2] -0.018 | [3] 0.004 | [4] 0.008 | [5] -0.007 | [6] 0.031 | [7] -0.012 | [8] 0.033 | IRAK-1-4 Inhibitor I 0.031

JMJD1C (UniProt Q15652)
inactive: erlotinib 0.003 | [1] -0.021 | [2] 0.022 | [3] -0.07 | [4] -0.028 | [5] 0.013 | [6] -0.007 | [7] -0.072 | [8] 0.043 | IRAK-1-4 Inhibitor I 0

IPO4 isoform 2 (UniProt Q8TEX9)
inactive: erlotinib 0.013 | [1] -0.012 | [2] 0.002 | [3] 0.007 | [4] 0.041 | [5] -0.045 | [6] -0.008 | [7] -0.001 | [8] 0.024 | IRAK-1-4 Inhibitor I 0.029

ITFG2 (UniProt Q969R8)
inactive: erlotinib 0.002 | [1] -0.071 | [2] 0.002 | [3] 0.1 | [4] 0.039 | [5] -0.03 | [6] -0.035 | [7] 0.009 | [8] -0.013 | IRAK-1-4 Inhibitor I 0.017

KAT7 (UniProt O95251)
inactive: erlotinib 0 | [1] 0.034 | [2] -0.011 | [3] -0.03 | [4] 0.032 | [5] -0.035 | [6] -0.004 | [7] -0.013 | [8] 0.094 | IRAK-1-4 Inhibitor I -0.027

KBTBD7 (UniProt Q8WVZ9)
inactive: erlotinib -0.037 | [1] -0.238 | [2] -0.085 | [3] -0.011 | [4] 0.155 | [5] -0.044 | [6] -0.005 | [7] -0.075 | [8] -0.047 | IRAK-1-4 Inhibitor I 0.034

Reprinted from above (six entries):
JPT2 isoform 3 (UniProt Q9H910)
inactive: erlotinib -0.002 | [1] -0.006 | [2] 0.096 | [3] -0.02 | [4] -0.012 | [5] 0.008 | [6] -0.024 | [7] -0.004 | [8] -0.008 | IRAK-1-4 Inhibitor I 0.021

IVNS1ABP (UniProt Q9Y6Y0)
inactive: erlotinib 0.004 | [1] 0.051 | [2] -0.002 | [3] 0.013 | [4] -0.066 | [5] 0.007 | [6] 0.013 | [7] 0 | [8] 0.005 | IRAK-1-4 Inhibitor I 0.009

KDM1A (UniProt O60341)
inactive: erlotinib -0.005 | [1] 0.106 | [2] 0.021 | [3] 0 | [4] -0.006 | [5] -0.019 | [6] -0.071 | [7] -0.019 | [8] -0.009 | IRAK-1-4 Inhibitor I -0.003

KCTD20 (UniProt Q7Z5Y7)
inactive: erlotinib 0.072 | [1] -0.145 | [2] -0.006 | [3] 0 | [4] 0.001 | [5] 0.063 | [6] 0.038 | [7] 0.081 | [8] 0.083 | IRAK-1-4 Inhibitor I 0.048

IRGQ (UniProt Q8WZA9)
inactive: erlotinib 0.02 | [1] 0.038 | [2] 0.004 | [3] 0 | [4] -0.005 | [5] 0 | [6] -0.009 | [7] -0.021 | [8] 0.024 | IRAK-1-4 Inhibitor I -0.01

ITGB5 (UniProt P18084)
inactive: erlotinib -0.015 | [1] -0.07 | [2] 0.022 | [3] -0.051 | [4] -0.012 | [5] -0.028 | [6] -0.038 | [7] 0.027 | [8] -0.024 | IRAK-1-4 Inhibitor I 0.005

Later entries.

ISOC2 (UniProt Q96AB3)
inactive: erlotinib -0.018 | [1] 0.003 | [2] 0.001 | [3] -0.035 | [4] -0.006 | [5] -0.072 | [6] 0.003 | [7] -0.007 | [8] -0.001 | IRAK-1-4 Inhibitor I 0.053

IPO8 (UniProt O15397)
inactive: erlotinib 0.023 | [1] -0.051 | [2] 0.024 | [3] 0.002 | [4] 0.048 | [5] -0.01 | [6] -0.05 | [7] 0 | [8] 0.004 | IRAK-1-4 Inhibitor I -0.006

KAT8 (UniProt Q9H7Z6)
inactive: erlotinib -0.001 | [1] -0.098 | [2] 0.031 | [3] 0.011 | [4] -0.014 | [5] 0.057 | [6] 0.019 | [7] -0.029 | [8] -0.01 | IRAK-1-4 Inhibitor I 0.01

IQGAP1 (UniProt P46940)
inactive: erlotinib -0.029 | [1] 0.092 | [2] 0.024 | [3] -0.021 | [4] -0.012 | [5] 0 | [6] -0.024 | [7] -0.01 | [8] 0.033 | IRAK-1-4 Inhibitor I -0.02

Source: the supplement of paper PMC10849652
